Reference: PubChem BioAssay AID1487 (National Center for Advancing Translational Sciences (NCATS), 2009)
The other results are listed elsewhere or left out. Further columns of the screen follow, without active or inactive calls. Most of these compounds were active or inconclusive in the main read-out, so they are no random draw. The note in brackets gives the kind of curve behind each potency; many fits are weak.

Experiment: qHTS Assay for Modulators of Lamin A Splicing
Conditions: HeLa LMNA splicing GFP/RFP minigene ratio, 48 h
Procedure, shortened: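 S3 HeLa cells stably expressing lamin A-EGFP splicing minigene plus DsRed2, 600 cells/well, 48 h compound exposure at 37C. Laser-scanning cytometry; analysed as GFP (500-530 nm)/RFP (575-640 nm) total intensity ratio; 0.5% DMSO vehicle.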

[1] = measured here: RFP viability control channel
[2] = measured here: GFP splicing reporter channel

## CC1(C)O[C@@H]1COc1c2ccoc2cc2oc(=O)ccc12
[1]
  AC50: 6.31 µM [rising, partial curve, poor fit]

## Cc1nn(Cc2ccc([N+](=O)[O-])cc2)c(=O)n1-c1ccc(Cl)cc1
[1]
  AC50: 0.02 µM [falling, partial curve, poor fit]

## Cc1cccc(OCC(=O)Nc2cc(-c3ccccc3F)nn2-c2ccccc2)c1
[2]
  AC50: 2.82 µM [rising, single point]

## O=C(O)CCCCCNC(=O)c1cccc(Br)c1
[1]
  AC50: 35.5 µM [falling, single point]

## N/C(=N\c1nc2ccccc2o1)NC(=O)c1cccc(Cl)c1
[2]
  AC50: 0.0794 µM [rising, full curve]

## N#Cc1c[nH]n2c(=O)c3c(nc12)CCC3
[2]
  AC50: 22.4 µM [rising, single point]

## CCOC(=O)N1CCN(C(=O)COc2cc(C)c(Cl)c(C)c2)CC1
[2]
  AC50: 28.2 µM [falling, partial curve]
[1]
  AC50: 14.1 µM [falling, partial curve, poor fit]

## CCc1cc2c(NCC3CCCO3)nc(C)nc2s1 (stereo not drawn)
[1]
  AC50: 17.8 µM [rising, single point]

## CC(C)NC(=O)N1CCN(S(=O)(=O)c2ccc3c(ccn3C)c2)CC1
[2]
  AC50: 0.316 µM [falling, full curve, poor fit]

## CCOC(=O)c1cccc(NC(=O)/C=C/c2ccc3c(c2)OCO3)c1
[2]
  AC50: 8.91 µM [rising, partial curve]
[1]
  AC50: 14.1 µM [rising, partial curve]

## Cc1ccc(-c2nc(CSCC(=O)NCCCN3CCOCC3)c(C)o2)cc1
[1]
  AC50: 5.01 µM [rising, partial curve]

## COc1ccc(C(=O)NCc2cccnc2)cc1C(=O)NCc1cccnc1
[2]
  AC50: 0.00891 µM [falling, full curve, poor fit]

## Cc1cc(C)cc(OCc2ccc(C(=O)N3N=C(C(F)F)CC3(O)C(F)F)o2)c1 (stereo not drawn)
[1]
  AC50: 2.24 µM [rising, single point]

## Cc1cc(N(CCO)CCO)nc(-n2nc(C)cc2C)n1
[1]
  AC50: 0.00355 µM [falling, full curve, poor fit]

## CNc1ccccc1C(C)(C)c1cc(-c2cc(C)cc(C)c2)no1
[1]
  AC50: 20 µM [rising, partial curve]

## Cc1c(C(=O)Nc2cccc(Cl)c2)sc2nc3n(c(=O)c12)N=C(c1cccc(Br)c1)CS3
[2]
  AC50: 0.501 µM [rising, full curve, poor fit]

## O=C(Nc1ccc([N+](=O)[O-])cc1)Nc1ccc2c(c1)OCCO2
[1]
  AC50: 35.5 µM [falling, partial curve]

## CCN(CC)S(=O)(=O)c1ccc(C(=O)NNc2nc(-c3ccccc3)c3cc(Br)ccc3n2)cc1
[1]
  AC50: 25.1 µM [rising, single point]

## CCOc1ccc(-c2cc(C(=O)Oc3ccc(C#N)cc3)no2)cc1
[1]
  AC50: 0.708 µM [rising, full curve, poor fit]

## O=C(CCS(=O)(=O)c1ccccc1)N(Cc1cccnc1)c1nc2ccc(Cl)cc2s1
[2]
  AC50: 25.1 µM [falling, partial curve, poor fit]
[1]
  AC50: 35.5 µM [falling, single point]

## COC(=O)C1=C(C)N(c2ccc(Cl)c(Cl)c2)C(=O)C1
[2]
  AC50: 17.8 µM [falling, single point]

## Cc1ccc(C)c(NC(=S)NNC(=O)c2csc(C)c2)c1
[2]
  AC50: 20 µM [rising, partial curve]
[1]
  AC50: 35.5 µM [rising, single point]

## COc1ccc(N2CCN(CCCNC(=O)c3cc(Nc4ccc(OC)cc4OC)nc4ccccc34)CC2)cc1
[1]
  AC50: 31.6 µM [rising, single point]

## O=[N+]([O-])c1cccnc1N1CCC(c2cc(-c3ccc(Cl)cc3)n[nH]2)CC1
[2]
  AC50: 25.1 µM [falling, single point]
[1]
  AC50: 22.4 µM [falling, partial curve]

## CC1CCc2c(sc3ncnc(NCCCOC(C)C)c23)C1 (stereo not drawn)
[2]
  AC50: 20 µM [rising, partial curve, poor fit]
[1]
  AC50: 22.4 µM [rising, single point]

## COc1ccc(-c2cn3ccc4ccccc4c3n2)cc1
[1]
  AC50: 14.1 µM [rising, single point]

## CCOc1cccc(CNCc2cccnc2)c1OCc1ccccc1
[2]
  AC50: 0.00316 µM [falling, full curve, poor fit]
[1]
  AC50: 0.00316 µM [falling, full curve, poor fit]

## O=c1c2ccccc2sn1-c1cc(S(=O)(=O)N2CCOCC2)ccc1N1CCOCC1
[1]
  AC50: 31.6 µM [falling, single point]

## Clc1ccc(CSc2nnnn2-c2ccc3c(c2)OCO3)c(Cl)c1
[2]
  AC50: 11.2 µM [rising, partial curve, poor fit]
[1]
  AC50: 20 µM [rising, single point]

## COc1ccc(C(=O)NC(=S)NNC(=O)c2ccc(NC(=O)C(C)C)cc2)cc1
[1]
  AC50: 12.6 µM [rising, partial curve]

## CC(=O)Nc1ccc(-n2cc(-c3ccccc3)[nH]c2=S)cc1
[2]
  AC50: 4.47 µM [falling, full curve, poor fit]

## O=C(c1nn(Cc2ccccc2)c(=O)c2ccccc12)N1CCN(c2ccccn2)CC1
[2]
  AC50: 10 µM [rising, partial curve]
[1]
  AC50: 7.08 µM [rising, partial curve, poor fit]

## O=C(NCc1cccnc1)C(=O)NCC(c1ccco1)N1CCN(c2ccc(F)cc2)CC1 (stereo not drawn)
[1]
  AC50: 17.8 µM [rising, single point]

## Cc1cc(C)[n+](C)n1CC(O)Cn1c2ccccc2c2ccccc21 (stereo not drawn)
[2]
  AC50: 0.316 µM [falling, full curve, poor fit]

## CCn1c2ccccc2c2cc(NC(=O)COc3ccccc3OC)ccc21
[1]
  AC50: 7.94 µM [rising, partial curve]

## CC(C)c1ccc(NC(=O)NC2CCCCC2)cc1
[2]
  AC50: 35.5 µM [rising, single point]

## CCCCOc1ccc(C(=O)Nc2ccc(SC(F)F)cc2)cc1OC
[2]
  AC50: 0.0501 µM [rising, full curve, poor fit]
[1]
  AC50: 0.0251 µM [rising, full curve, poor fit]

## COc1ccc(-n2c(C)cc(C)c(C(C)=O)c2=S)cc1
[1]
  AC50: 0.0562 µM [falling, full curve, poor fit]

## CN(C)c1ncnc2ccc(-c3cccc(C#N)c3)cc12
[2]
  AC50: 6.31 µM [falling, partial curve, poor fit]

## O=C(/C=C/c1ccccc1)c1ccccc1
[2]
  AC50: 8.91 µM [falling, full curve]
[1]
  AC50: 22.4 µM [falling, partial curve, poor fit]

## Cc1csc(NC(=O)NC2(C(F)(F)F)Oc3ccccc3O2)n1
[1]
  AC50: 7.08 µM [rising, partial curve]

## CC(C)CCNc1nc2c(c(=O)n(Cc3cccc(F)c3)c(=O)n2C)n1C
[2]
  AC50: 0.631 µM [rising, full curve, poor fit]
[1]
  AC50: 6.31 µM [rising, partial curve, poor fit]

## CN(C)S(=O)(=O)N1CCC(CCCC2CCN(S(=O)(=O)N(C)C)CC2)CC1
[2]
  AC50: 3.98 µM [rising, single point]

## Cc1cc(C)cc(OCC(=O)N(Cc2cccs2)c2ccc(Cl)cc2)c1
[1]
  AC50: 31.6 µM [rising, single point]

## O=C(NCc1ccco1)c1csc(Nc2ccccc2Cl)n1
[1]
  AC50: 25.1 µM [rising, single point]

## Fc1ccc(-c2nn(-c3ccccc3Cl)c3c2cnc2ccccc23)cc1
[2]
  AC50: 35.5 µM [falling, single point]
[1]
  AC50: 35.5 µM [falling, single point]

## CCOc1ccc(N2C(=O)CC(NCC3CCCO3)C2=O)cc1 (stereo not drawn)
[2]
  AC50: 0.02 µM [rising, full curve, poor fit]

## CC1(C)CC[C@]2(C(=O)O)CC[C@@]3(C)C(=CCC4[C@@]5(C)CCC(O)[C@@](C)(CO)C5CC[C@@]43C)C2C1 (stereo partly drawn)
[2]
  AC50: 12.6 µM [rising, partial curve, poor fit]
[1]
  AC50: 22.4 µM [rising, single point]

## COc1ccc2c(c1)C(=O)[C@@H](O)[C@H](c1ccc(OC)c(Br)c1)O2
[2]
  AC50: 35.5 µM [rising, single point]
[1]
  AC50: 28.2 µM [rising, single point]

## C=CCN1N=C(c2ccc(Cl)s2)CSC1=O
[1]
  AC50: 15.8 µM [falling, single point]

## COC(=O)c1ccccc1NC(=O)C1CC(=O)N(c2ccc(OC)cc2)C1 (stereo not drawn)
[1]
  AC50: 5.01 µM [rising, partial curve, poor fit]

## CCn1nc(C)c2c(-c3ccccc3)cc(=O)n(C(C)C(=O)NCCC(C)C)c21 (stereo not drawn)
[2]
  AC50: 11.2 µM [falling, partial curve, poor fit]
[1]
  AC50: 0.00355 µM [falling, full curve, poor fit]

## C=CCn1c(C)cc(C(=O)Cn2ncc(Cl)c(Cl)c2=O)c1C
[1]
  AC50: 35.5 µM [falling, single point]

## Cc1sc(NC(=O)CCC(=O)O)c(C(N)=O)c1-c1ccccc1
[2]
  AC50: 0.0794 µM [rising, full curve, poor fit]

## Cc1ccc(NC(=O)Cn2nc(C(=O)Nc3ccc(C)cc3)ccc2=O)cc1
[1]
  AC50: 0.0316 µM [falling, full curve, poor fit]

## CS(=O)(=O)c1ccc(S(=O)CC(=O)OCc2ccccc2)c([N+](=O)[O-])c1 (stereo not drawn)
[1]
  AC50: 10 µM [falling, partial curve]

## COc1ccc(CNS(=O)(=O)c2ccc(N3CCCCS3(=O)=O)cc2)cc1
[1]
  AC50: 2.51 µM [falling, single point]
